In CN114716546A:
Results are given in words; binding and its absence hold for the method and conditions named. Some results given as binding are weak or reduced against the parent protein; the word gives no strength. Tags and fused reporters may be left off the sequences shown.

Chains of the proteins cited; added tags and fusions are not shown. Residues count along the entry.
UniProt P42227, residues 2-770: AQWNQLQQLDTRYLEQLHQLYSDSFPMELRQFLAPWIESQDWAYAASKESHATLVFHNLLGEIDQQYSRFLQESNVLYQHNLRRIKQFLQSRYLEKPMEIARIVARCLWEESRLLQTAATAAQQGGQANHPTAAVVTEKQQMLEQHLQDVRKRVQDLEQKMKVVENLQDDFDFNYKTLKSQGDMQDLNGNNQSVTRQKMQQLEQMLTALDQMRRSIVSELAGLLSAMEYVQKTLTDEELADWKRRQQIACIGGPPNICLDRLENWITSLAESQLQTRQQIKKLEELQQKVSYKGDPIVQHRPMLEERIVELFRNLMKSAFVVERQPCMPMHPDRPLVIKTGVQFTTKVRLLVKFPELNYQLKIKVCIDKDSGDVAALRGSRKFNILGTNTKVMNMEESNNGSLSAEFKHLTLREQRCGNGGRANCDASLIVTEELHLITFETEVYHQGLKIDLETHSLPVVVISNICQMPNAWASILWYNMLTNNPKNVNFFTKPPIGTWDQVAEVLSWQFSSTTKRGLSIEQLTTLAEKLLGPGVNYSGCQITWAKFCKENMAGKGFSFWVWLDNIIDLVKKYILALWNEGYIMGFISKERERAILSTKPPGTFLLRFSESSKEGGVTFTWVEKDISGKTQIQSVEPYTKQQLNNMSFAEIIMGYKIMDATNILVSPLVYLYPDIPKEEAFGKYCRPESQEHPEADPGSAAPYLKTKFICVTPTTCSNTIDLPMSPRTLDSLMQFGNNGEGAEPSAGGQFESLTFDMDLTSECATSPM

Assays:
[1] = target: STAT3 in mouse brain tissue (mouse) (UniProt P42227); experiment: Western blot of mouse brain protein, nanobody as first antibody, HRP anti-His as second
[2] = target: STAT3 in mouse brain tissue (mouse) (UniProt P42227); experiment: immunohistochemistry on normal mouse brain tissue, nanobody as first antibody, HRP anti-His as second

binding [1]: binds
binding [2]: binds
B1: STAT3纳米抗体 (purified, His-tagged STAT3-VHH-10B expressed from pCold I in E. coli BL21(DE3)) (VHH, not shown: small tags and cut ends)
VHH: ESGGGLVQPGGSLRLSCAASGFTFSNYAMTWVRQAPGKGPEWVSDINMAGSMTRYADSVKGRFTISRDNAKNTLYLQMDSLKPEDTGLYYCARRNVGWDGTAGEEWDFRGQGTQVTVSS
